# In PubChem BioAssay AID1347076 (National Center for Advancing Translational Sciences (NCATS), 2019):
# Screen size: about 400,000 compounds; about 13,000 (3.2%) were called active. This list was built around the results that the source calls inconclusive (neither active nor inactive); the mix of calls is not that of the screen. Calls come from the whole dose curve; as a rule, active = well fitted cell-killing curve with a large enough effect; inconclusive = small, poorly fitted or top-dose-only effect, or effect the other way; inactive = flat fitted curve, though single readings scatter. Potencies beside an inconclusive call are fits to weak or partial responses and may not hold up.
# Test: qHTS assay for MDR1-selective chemotherapeutics: Primary screen using the drug-selected MDR subline cells KB-V1; note: nearly all actives have a fitted effect of over 60% in size
# Conditions: KB-V1 MDR cells viability, CellTiter-Glo, 72 h; activity change, negative = cytotoxicity: at 46.1 µM (top of the series)
# In short: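 Readout: CellTiter-Glo luminescence, 10 min after addition. Cells: KB-V1 MDR subline, 72 h at 37 degrees C with compound. Analysis: corrected, normalized data fitted to concentration-effect curves.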
# % is set by controls: 0 for no effect and ±100 for the full control effect; potency is the fitted concentration of half-maximal effect.
Compound,Potency,"activity change, negative = cytotoxicity"
Nc1[nH]ncc1C(=O)Nc1cccc(C(F)(F)F)c1,"inconclusive: 16.4 µM [rising, partial curve]",
CC[n+]1c(/C=C/Nc2ccccc2)sc2ccccc21,"inconclusive: 20.6 µM [cytotoxic, partial curve, poor fit]",
Cc1cc(N2CCN(C)CC2)nc2ccc(NC(=O)c3ccc(Br)o3)cc12,"inconclusive: 29.1 µM [cytotoxic, single point]",
Cn1nnc(NC(=S)NC(=O)c2ccc(-c3ccc(Br)cc3)o2)n1,inactive,
COc1ccc(C2=Nn3c(nnc3-c3ccccc3)SC2)cc1OC,"inconclusive: 2.06 µM [cytotoxic, full curve, poor fit]",
CNC(=S)NNC(=O)c1ccccc1F,inactive,
O=C(NCC1CCCO1)c1cccc(S(=O)(=O)Nc2ccc(SC(F)F)cc2)c1 (configuration not stated),"inconclusive: 29.1 µM [cytotoxic, single point]",
COc1ccc(OCC(=O)N2CCN(C(=O)c3cccc(OC)c3)CC2)cc1,"inconclusive: 20.6 µM [cytotoxic, partial curve, poor fit]",
COc1ccc(Cn2nnnc2C(c2cccs2)N2CCCCCC2)cc1 (configuration not stated),active: 16.4 µM,
COc1ccc(C(CCNCc2ccc(N(C)C)cc2)c2ccccc2)cc1 (configuration not stated),"inconclusive: 23.1 µM [cytotoxic, single point]",
Cc1ccc(NC(=O)COC(=O)CNC(=O)c2ccco2)cc1,"inconclusive: 29.1 µM [rising, single point]",
COc1ccc(N2CCN(C(=O)c3ccc(C)cc3Cl)CC2)cc1,"inconclusive: 18.4 µM [cytotoxic, single point]",
Cc1ccc(NC(=O)CN(C)C(=O)c2cccc(-n3cccc3)c2)cc1,"inconclusive: 29.1 µM [cytotoxic, partial curve, poor fit]",
Cc1nc2ccccc2c2nc(NC(=O)C(F)(F)F)nn12,inactive,
CC1CN(S(=O)(=O)c2cc(C(=O)NCCC3=CCCCC3)ccc2Cl)CC(C)O1 (configuration not stated),"inconclusive: 23.1 µM [cytotoxic, partial curve, poor fit]",
O=C1c2ccccc2C(=O)c2c1oc(C(F)(F)F)c2C(=O)c1ccccc1,active: 7.31 µM,
C=CCN1C(=O)C(C)NC1=S (configuration not stated),inactive,
CCOC(=O)c1nn(-c2ccccc2)c(=O)c2c(N)scc12,inactive,
CCN(CC)C(=O)CN(c1ccc(F)c(Cl)c1)S(C)(=O)=O,"inconclusive: 20.6 µM [rising, partial curve]",
O=C(NCCN1CCN(C(=O)c2cccc(Br)c2)CC1)C(=O)NCc1ccccc1,"inconclusive: 8.2 µM [cytotoxic, partial curve]",
O=C(NC1CC1)C1CCN(S(=O)(=O)c2cc([N+](=O)[O-])ccc2Cl)CC1,"inconclusive: 16.4 µM [rising, single point]",
CSc1ccc(CN2CCC2(C)C(=O)Nc2cccc(Oc3ccccc3)c2)cc1 (configuration not stated),inactive,
O=S(=O)(c1ccc(Br)cc1)N1CCCc2ccccc21,inactive,
Cc1nn(-c2ccccc2)c(Cl)c1C(=O)NCC(C)c1ccccc1 (configuration not stated),"inconclusive: 8.2 µM [cytotoxic, partial curve]",

# Gathered by group: the compounds so far containing an aryl thioether with sulfur outside any ring.
Compound,Potency,"activity change, negative = cytotoxicity"
O=C(NCC1CCCO1)c1cccc(S(=O)(=O)Nc2ccc(SC(F)F)cc2)c1 (configuration not stated),"inconclusive: 29.1 µM [cytotoxic, single point]",
CSc1ccc(CN2CCC2(C)C(=O)Nc2cccc(Oc3ccccc3)c2)cc1 (configuration not stated),inactive,

# Next structures

Compound,Potency,"activity change, negative = cytotoxicity"
Cn1cccc1CC(=O)NNC(=S)Nc1ccc(Cl)cc1,inactive,
O=C(C1CCN(S(=O)(=O)c2cccc3cccnc23)CC1)N1CCN(c2ccc(Cl)cc2)CC1,inactive,
O=C(c1ccccc1)N1CCN(C(=O)c2ccccc2)C1c1ccccc1,"inconclusive: 10.3 µM [cytotoxic, partial curve]",
COc1ccc(N2CCN(C(=O)c3cc(S(=O)(=O)N4CCC(C)CC4)cn3C)CC2)cc1,inactive,
Cc1ccc(C(=O)Cn2nnc3c(sc4nc5c(c(-c6ccccc6)c43)CCC5)c2=O)cc1,inactive,
CC(C)N(C(=O)CSc1nc2ccccc2n1Cc1ccc(F)cc1)C(C)C,"inconclusive: 20.6 µM [cytotoxic, single point]",
COc1ccc(-n2ccnc(NCc3ccc(C)cc3)c2=O)cc1OC,inactive,
Cc1c(C(=O)N2CCCCCC2)c(S(=O)(=O)NCc2ccccc2Cl)c(C)n1C,inactive,
CC1(C(=O)Nc2ccc3ccccc3c2)CCC(=O)N1C1CCN(Cc2ccccc2)CC1 (configuration not stated),inactive,
COC(=O)c1cn(NC(=O)Cc2ccc(Cl)cc2)c(=O)c2ccccc12,active: 20.6 µM,
COc1ccc(/C=N/NC(=O)c2nc(Cl)c(Cl)c(N)c2Cl)cc1COc1ccccc1F,inactive,
CC1CC(C)CN(C(=O)CSc2nnc3ccccn23)C1 (configuration not stated),"inconclusive: 18.4 µM [cytotoxic, partial curve]",
O=C(N/N=C/c1c(O)ccc2ccccc12)c1ccc(Br)o1,"inconclusive: 2.06 µM [cytotoxic, full curve]",
CC(C)NC(=S)N1CCN(c2ncccn2)CC1,"inconclusive: 16.4 µM [cytotoxic, partial curve, poor fit]",
COc1ccc(N(CC(=O)N2CCN(c3ccccc3F)CC2)S(=O)(=O)c2c(C)n[nH]c2C)cc1,,inconclusive: -4.6%
Cc1nn(Cc2ccc([N+](=O)[O-])cc2)c(=O)n1N(C)c1ncc(C(F)(F)F)cc1Cl,"inconclusive: 10 µM [cytotoxic, partial curve]",
Cc1ccc(-c2c(C#N)c(N)nc3c2CCCCC3)o1,inactive,
O=C(NC1CCCCC1)c1ccc2c(c1)N(Cc1ccc(Cl)cc1)C(=O)c1ccccc1S2=O (configuration not stated),"inconclusive: 4.11 µM [cytotoxic, partial curve, poor fit]",
CCOc1ccc(CN(C)C(=O)c2ccc(NC(=O)CC3SC(N4CCCC4)=NC3=O)cc2)cc1 (configuration not stated),inactive,
CN(CCOc1ccc(Cl)cc1)C(=O)CNS(=O)(=O)c1ccc(N(C)C)c([N+](=O)[O-])c1,"inconclusive: 7.31 µM [cytotoxic, partial curve]",
CCn1cc(C(=O)NCCc2ccc(Cl)cc2)c(=O)c2cc(S(=O)(=O)N3CCC(C)CC3)ccc21,inactive,
O=c1c2c3c(sc2nc2n1CCC2)CCCCC3,"inconclusive: 14.6 µM [cytotoxic, partial curve]",
COc1ccccc1NS(=O)(=O)c1cccc(NC(=O)Nc2ccc(Cl)cc2)c1,"inconclusive: 18.4 µM [cytotoxic, single point]",
